Data as given in publication PMC6339880.
No constants are given. Whether binding was seen depends on the method and setting. In cells and extracts the contact can be indirect. A yes stands for co-enrichment or nearness to the bait. Other partners may have been found.

B1: HldD (enzyme, UniProt P67910 1-310)
chain: MIIVTGGAGFIGSNIVKALNDKGITDILVVDNLKDGTKFVNLVDLNIADYMDKEDFLIQIMAGEEFGDVEAIFHEGACSSTTEWDGKYMMDNNYQYSKELLHYCLEREIPFLYASSAATYGGRTSDFIESREYEKPLNVYGYSKFLFDEYVRQILPEANSQIVGFRYFNVYGPREGHKGSMASVAFHLNTQLNNGESPKLFEGSENFKRDFVYVGDVADVNLWFLENGVSGIFNLGTGRAESFQAVADATLAYHKKGQIEYIPFPDKLKGRYQAFTQADLTNLRAAGYDKPFKTVAEGVTEYMAWLNRDA
B2: PlsB (enzyme, UniProt P0A7A7 1-807)
chain: MSGWPRIYYKLLNLPLSILVKSKSIPADPAPELGLDTSRPIMYVLPYNSKADLLTLRAQCLAHDLPDPLEPLEIDGTLLPRYVFIHGGPRVFTYYTPKEESIKLFHDYLDLHRSNPNLDVQMVPVSVMFGRAPGREKGEVNPPLRMLNGVQKFFAVLWLGRDSFVRFSPSVSLRRMADEHGTDKTIAQKLARVARMHFARQRLAAVGPRLPARQDLFNKLLASRAIAKAVEDEARSKKISHEKAQQNAIALMEEIAANFSYEMIRLTDRILGFTWNRLYQGINVHNAERVRQLAHDGHELVYVPCHRSHMDYLLLSYVLYHQGLVPPHIAAGINLNFWPAGPIFRRLGAFFIRRTFKGNKLYSTVFREYLGELFSRGYSVEYFVEGGRSRTGRLLDPKTGTLSMTIQAMLRGGTRPITLIPIYIGYEHVMEVGTYAKELRGATKEKESLPQMLRGLSKLRNLGQGYVNFGEPMPLMTYLNQHVPDWRESIDPIEAVRPAWLTPTVNNIAADLMVRINNAGAANAMNLCCTALLASRQRSLTREQLTEQLNCYLDLMRNVPYSTDSTVPSASASELIDHALQMNKFEVEKDTIGDIIILPREQAVLMTYYRNNIAHMLVLPSLMAAIVTQHRHISRDVLMEHVNVLYPMLKAELFLRWDRDELPDVIDALANEMQRQGLITLQDDELHINPAHSRTLQLLAAGARETLQRYAITFWLLSANPSINRGTLEKESRTVAQRLSVLHGINAPEFFDKAVFSSLVLTLRDEGYISDSGDAEPAETMKVYQLLAELITSDVRLTIESATQGEG
B3: PssA (enzyme, UniProt P23830 1-451)
chain: MLSKFKRNKHQQHLAQLPKISQSVDDVDFFYAPADFRETLLEKIASAKQRICIVALYLEQDDGGKGILNALYEAKRQRPELDVRVLVDWHRAQRGRIGAAASNTNADWYCRMAQENPGVDVPVYGVPINTREALGVLHFKGFIIDDSVLYSGASLNDVYLHQHDKYRYDRYHLIRNRKMSDIMFEWVTQNIMNGRGVNRLDDVNRPKSPEIKNDIRLFRQELRDAAYHFQGDADNDQLSVTPLVGLGKSSLLNKTIFHLMPCAEQKLTICTPYFNLPAILVRNIIQLLREGKKVEIIVGDKTANDFYIPEDEPFKIIGALPYLYEINLRRFLSRLQYYVNTDQLVVRLWKDDDNTYHLKGMWVDDKWMLITGNNLNPRAWRLDLENAILIHDPQLELAPQREKELELIREHTTIVKHYRDLQSIADYPVKVRKLIRRLRRIRIDRLISRIL
B4: PgsA (enzyme, UniProt P0ABF8 1-182)
chain: MQFNIPTLLTLFRVILIPFFVLVFYLPVTWSPFAAALIFCVAAVTDWFDGFLARRWNQSTRFGAFLDPVADKVLVAIAMVLVTEHYHSWWVTLPAATMIAREIIISALREWMAELGKRSSVAVSWIGKVKTTAQMVALAWLLWRPNIWVEYAGIALFFVAAVLTLWSMLQYLSAARADLLDQ
B5: PgpC (enzyme, UniProt P0AD42 1-211)
chain: MATHERRVVFFDLDGTLHQQDMFGSFLRYLLRRQPLNALLVLPLLPIIAIALLIKGRAARWPMSLLLWGCTFGHSEARLQTLQADFVRWFRDNVTAFPLVQERLTTYLLSSDADIWLITGSPQPLVEAVYFDTPWLPRVNLIASQIQRGYGGWVLTMRCLGHEKVAQLERKIGTPLRLYSGYSDSNQDNPLLYFCQHRWRVTPRGELQQLE

Biological target: T1, Strep-LpxC (E. coli) (UniProt P0A725)
T1 sequence: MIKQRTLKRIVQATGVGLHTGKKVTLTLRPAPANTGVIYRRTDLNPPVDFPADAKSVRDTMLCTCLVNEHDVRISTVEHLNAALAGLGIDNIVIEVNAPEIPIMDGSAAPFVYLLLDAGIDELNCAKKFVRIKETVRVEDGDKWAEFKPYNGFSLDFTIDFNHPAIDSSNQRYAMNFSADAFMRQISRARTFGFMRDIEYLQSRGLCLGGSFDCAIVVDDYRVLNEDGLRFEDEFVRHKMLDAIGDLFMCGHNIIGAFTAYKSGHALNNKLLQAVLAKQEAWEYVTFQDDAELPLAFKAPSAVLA
Assay: affinity purification with mass spectrometry; Strep-LpxC overproduced in E. coli BL21 Δarg/Δlys grown at 30°C (slow), 37°C (medium) or 40°C (fast growth); Strep-tactin affinity purification from the lysate; co-purified proteins identified by LC-MS/MS with a super-SILAC standard; enriched >2-fold over the Strep-tag empty-vector control, p<0.05, or 'LpxC only'

Binder	binding
B1	binds
B2	binds
B3	binds
B4	binds
B5	binds
